{
  "source": "patent US9310660B2",
  "about": "“Organic compound and electrochromic element including the same” (CANON KABUSHIKI KAISHA, priority 2013, dated 2016)",
  "test": "Electrochromic element characteristic evaluation",
  "data": [
    {"smiles": "Cc1cc(C)c(-c2cc3sc4cc(-c5cccc(-c6cc[n+](Cc7ccccc7)cc6)c5)sc4c3s2)c(C)c1", "note": "[Compound A-1]", "values": [
      {"measurement": "transmittance over the entire visible light region", "setting": "EC element immediately after production, 40.0 mM in propylene carbonate, 0.1 M tetrabutylammonium perchlorate", "value": "about 80%"},
      {"measurement": "absorption λmax in coloring", "setting": "EC element, 40.0 mM, voltage of 1.6 V", "value": 493, "unit": "nm"},
      {"measurement": "transmittance at λmax during voltage application", "setting": "EC element, 40.0 mM, voltage of 1.6 V, 493 nm", "value": 1.5, "unit": "%"}
    ]},
    {"smiles": "Cc1cc(C)c(-c2cc3sc4cc(-c5cccc(-c6ccncc6)c5)sc4c3s2)c(C)c1", "note": "[Ref-1, reference compound]", "values": [
      {"measurement": "absorption peak wavelength in oxidation coloring", "setting": "EC element, 4.0 mM", "value": 494, "unit": "nm"},
      {"measurement": "transmittance at the absorption peak wavelength in oxidation coloring", "setting": "EC element, 4.0 mM, 494 nm", "value": 65, "unit": "%"}
    ]}
  ]
}
